The source of these data is patent US20100240581A1, “SELECTIVE PROTEASOME INHIBITORS FOR TREATING DIABETES” (The Trustees of Columbia University in the City of New York, priority 2006, published 2010).

This data set has as its system male C57BL/Ks db/db mice. The data set is described as follows: Body composition (Bruker NMR), food intake and liver in db/db mice. It counts as in vivo, mouse. Conditions: dietary curcumin (3%).

Take `COc1cc(/C=C/C(=O)CC(=O)/C=C/c2ccc(O)c(OC)c2)ccc1O` [curcumin]: the liver weight entry (db/db mice) is “An increase in liver weight”. Further, the food intake result (db/db mice vs control cohort) is “ate less”.
